For this data set, the system named is liver fibrosis induced by porcine serum. Nature of the data set: Liver fibrosis induced by 8-week porcine serum administration to rats: 6-ECDCA, rosiglitazone and combination. It counts as in vivo, rat. Particulars: 8 weeks, mean ± SE. The method, then: To investigate whether 6-ECDCA was effective in regulating PPARγ expression, porcine serum-administered rats (6-8 each group) were randomized to receive 1 and 3 mg/kg 6-ECDCA via gavage 5 times a week. Control rats were administered 3% carboxy-methyl cellulose (CMC) by gavage. At the end of the study, rats were sacrificed under anaesthesia with sodium pentobarbital (50 mg/kg, i.p.) and terminally bled via cardiac puncture. The liver was removed for examination and blood samples were taken.
Groups and duration of treatment are described in Table 1 below. Animals were followed for 8 weeks.
Collagen surface density was quantified using a computerized image analysis system (Image Acquisition System Ver. 005, Delta Sistemi, Rome, Italy) (see Fiorucci et al., supra). Hepatic and urinary content of hydroxyproline were determined by HPLC (LC Varian Prostar HPLC, Varian, Rome, Italy) as described in Fiorucci et al. (supra). The ANOVA followed by Dunnett or Bonferroni correction for multiple comparison were applied when appropriate during statistical analysis. EC50 were calculated using Prism III (Graphpad Software. Inc., San Diego, Calif.).

Take `CC[C@H]1[C@@H](O)[C@@H]2[C@H](CC[C@]3(C)[C@@H]([C@H](C)CCC(=O)O)CC[C@@H]23)[C@@]2(C)CC[C@@H](O)C[C@@H]12` [6-ECDCA]: the Final b.w. (oral 1 mg/kg (each drug)) is reported as 357.3 ± 9.8 g and the Final b.w. (oral 3 mg/kg (each drug)) is reported as 352.4 ± 10.3 g.

These data come from patent publication US20060252670A1, “Method of reducing drug-induced adverse side effects in a patient” (Intercept Pharmaceuticals Inc., priority 2004, published 2006).
